In PubChem BioAssay AID651664 (NMMLSC, 2012) one finds inhibition data, which are given here for 100 molecules.

SMILES strings stand for the structures. In all, about 1,800 compounds went through this assay and fewer than 10 were called active.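 How the source made its calls: active means inhibition of granule release above a set limit; inactive means the rest.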 This is one part of the list.

A word on the inhibition: it is the relative decrease from the control value, in per cent.

This assay is described as follows: LAMP-1 surface externalization blockers in TALL-104 cells – cell-based, flow cytometry, validation set (AID 651664). The settings on record: TALL-104 LAMP-1 externalization, at 15.2 µM, hits give high values, stimulated with thapsigargin and PMA. A general note: In flow cytometry, cells or beads pass a laser one at a time.
Turning to `CC(=O)N1CCN(c2nnnn2-c2ccccc2)CC1`, the inhibition was inactive: 1.1%. In the case of `COc1ccc(-c2csc(NC(=O)c3ccco3)n2)cc1`, the inhibition was inactive: -2.2%. For `CC1N(O)C(c2ccc(Cl)cc2Cl)N(O)C1(C)C` (stereo not given) the value was inactive: 0.8%; for `Cc1cc(C(=O)CSc2nnc(-c3ccco3)o2)c(C)n1CC1COc2ccccc2O1` (stereo not given), inactive: 2.7%; for `CCCCc1ccc(NC(=O)OC)cc1`, inactive: -1.9%. For `Cc1nn(-c2ccccc2)c(C)c1C(=O)OCC(=O)NC(=O)NC1CCCC1` the value was inactive: -2.5%; for `CN(CCC#N)C(=O)c1ccc(CNS(=O)(=O)c2ccc(F)cc2)cc1`, inactive: -3.4%; for `N#CC(C(=O)NCCc1ccccc1)c1nc2ccccc2nc1N1CCCCC1` (stereo not given), inactive: 2.9%.

In the case of `O=C(CCCOc1ccc(Cl)cc1Cl)N1CCCc2ccccc21`, the inhibition is inactive: -4.6%. As for `CCc1ccc(NC(=O)Nc2cccs2)cc1`, the inhibition was inactive: 0%. The same measure for `O=C(O)c1ccc(NS(=O)(=O)c2cc(C(=O)O)ccc2Br)cc1`: inactive: 0.9%; for `CCOC(=O)C(C)On1c(-c2cccc(Cl)c2)nc2ccc([N+](=O)[O-])cc21` (stereo not given): inactive: 0.8%; for `COc1ccc(NC(=O)CSc2c(C)nn(-c3nnc(C)c(=O)[nH]3)c2C)cc1`: inactive: 0.5%.

As for `Cc1nc(SCc2cccc(Oc3ccccc3)c2)n[nH]1`, the inhibition was inactive: -0.4%. For `CCCCCCC(=O)N1CCN(c2cc3c(cc2F)c(=O)c(C(=O)O)cn3CC)CC1` the value was inactive: 11.2%. The same measure for `O=C(CCS(=O)(=O)c1ccc(Cl)cc1)OCC(=O)N1CCCCC1`: inactive: 4.4%. As to `CN1C(=O)C2(N=c3ccccc3=N2)c2ccccc21`, the inhibition is inactive: 0.5%.

With `CCc1cc(C(=O)O)c(NC(=O)C(c2ccccc2)c2ccccc2)s1`, the inhibition was inactive: 3.3%.

As for `NS(=O)(=O)c1cccc(NC(=O)CSc2ccccn2)c1`, the inhibition was inactive: -0.3%.

As for `O=S(=O)(c1cccc2cccnc12)N1CCN(Cc2ccc3c(c2)OCO3)CC1`, the inhibition is inactive: -0.3%. Consider `Cc1ccc(N2C(=O)c3ccccc3C2(O)c2ncc[nH]2)cc1` (stereo not given), for which the inhibition is inactive: 2.1%. For `O=C(Nc1ccc2c(c1)OCO2)C1CCN(Cc2cnn(-c3ccccc3)c2-n2cccc2)CC1` the value was inactive: 0.4%; for `COP(C)(=O)c1c(C)nn(-c2ccccc2)c1C` (stereo not given), inactive: -2.1%; for `COc1ccc(N2C(=O)CC(NCc3cccc(F)c3)C2=O)cc1` (stereo not given), inactive: 1.4%. The same measure for `O=C(NCc1nc2ccccc2[nH]1)c1cc2ccccc2oc1=O`: inactive: 6.1%; for `O=C(CNC(=O)/C(=C\c1ccccc1)NC(=O)c1ccc(Br)cc1)OCc1ccccc1`: inactive: -2.8%; for `CCOC(=O)NCc1ccc(CNC(=O)OCC)cc1`: inactive: 5.6%. The same measure for `CN(CC(=O)N1CCN(c2ccccn2)CC1)S(=O)(=O)c1ccc(Br)cc1`: inactive: 3.5%; for `O=C1CC(SCCc2nc3ccccc3[nH]2)C(=O)N1c1ccc(F)c(Cl)c1` (stereo not given): inactive: -1.1%; for `N#Cc1c(F)cccc1N1CCOCC1`: inactive: 1.2%. As to `CC(=NCC1CCCO1)c1c(O)[nH]c(=O)[nH]c1=O` (stereo not given), the inhibition is inactive: -0.2%. With `O=C(CN1C(=O)CC(c2ccccc2)=Nc2ccccc21)NCc1ccccc1`, the inhibition was inactive: 1.9%. For `CCn1c(SCC(=O)Nc2sc3c(c2C(N)=O)CCC(C)C3)nnc1-c1ccco1` (stereo not given) the value was inactive: 0.6%; for `Cc1cc(OCC(=O)Nc2ccncc2)ccc1Br`, inactive: -0.6%.

For the molecule `CCCSC1=N/C(=C\c2ccsc2)C(=O)S1`, the inhibition is inactive: 3.4%. For `CCCNC(=O)c1ccccc1NC(=O)c1ccccc1N(C)S(=O)(=O)c1ccc(C)cc1` the value was inactive: 2%. In the case of `CCOC(=O)c1[nH]c(C)c(/C(O)=C2\C(=O)C(=O)N(CCN(C)C)C2c2ccncc2)c1C` (stereo not given), the inhibition was inactive: 4%.

In the case of `O=C(O)CCCCCNC(=O)Nc1ccc2c(c1)OCCO2`, the inhibition is inactive: -3.4%. For `CN1C(=O)c2cccc3c(S(=O)(=O)NCc4ccco4)ccc1c23` the value was inactive: -2.4%; for `CC(C)COc1ccc(Cc2cnc(N)nc2N)cc1`, inactive: 2%.

As to `C(=C\c1ccccc1)/CSc1nnc(-c2ccncc2)n1Cc1ccco1`, the inhibition is inactive: 4.6%. For `CSCC[C@H](Nc1ncnc2sc(C)c(C)c12)C(=O)O` the value was inactive: -2.3%; for `C(#CCN1CCOCC1)COC(c1ccccc1)c1ccccc1`, inactive: 0.6%. The same measure for `COc1ccc(CCNC(=O)c2ccccc2NC(=O)c2ccco2)cc1OC`: inactive: -1.7%; for `O=[N+]([O-])c1cn(Cc2ccc(Cl)cc2)cn1`: inactive: 4.5%. The same measure for `O=C1CSC(=S)N1Cc1cccnc1`: inactive: -1.3%; for `Cc1cc(C(=O)CSc2ccc(F)cc2)cc(C)c1OC(=S)N(C)C`: inactive: -0.8%; for `O=C(CN1CCN(c2cccc(C(F)(F)F)c2)CC1)Nc1cccc(C(F)(F)F)c1`: inactive: -3.2%. Take `N/C(=N\OC(=O)c1cccc(Br)c1)c1ccc(Br)cc1`: the inhibition is active: 57.6%. Regarding `O=C(c1n[nH]c(=O)c2ccccc12)N1CCOCC1`, the inhibition is inactive: 3%. For `COC(=O)c1cccc(NC(=O)c2ccco2)c1` the value was inactive: -2.7%. For `Cc1ccccc1C1CC(c2ccccc2OC(F)F)Nc2ncnn21` (stereo not given) the value was inactive: -2.3%; for `CCCS(=O)(=O)c1snnc1C`, inactive: 2%; for `CN(CC(=O)NC(c1ccccc1)c1ccccc1)Cc1nc2ccccc2c(=O)[nH]1`, inactive: -1.3%. The same measure for `C(=N\n1cnnc1)/c1ccccc1OCCOc1ccccc1`: inactive: 8.7%; for `Cc1c(Cl)cccc1-n1c(SCC(=O)NCc2cccs2)nnc1-c1ccncc1`: inactive: 0.3%. For `CC(C)c1noc2ncc(C(=O)c3cc(Cl)cc(Cl)c3O)cc12`, the inhibition was inactive: -2.7%.

As to `CC(C)=CCCC(C)N(C=O)C(C)CCC=C(C)C` (stereo not given), the inhibition was inactive: -4.5%. For `CCOC(=O)c1nn(-c2ccc(F)cc2)c(C)c1C(C)=O` the value was inactive: 3.8%. Regarding `CCCCSc1nnc2n(CCc3ccccc3)c(=O)c3c4c(sc3n12)COC(C)(C)C4`, the inhibition is inactive: -1%. For `COc1ccc(CC(=O)NCc2cn3ccsc3n2)cc1` the value was inactive: -1.3%; for `O=C(CC1Nc2ccccc2NC1=O)NCCCN1CCCCCC1` (stereo not given), inactive: -1.3%; for `CCCc1nc2ccccc2c(=O)n1/N=C/c1ccccc1O`, inactive: -1.9%.

Turning to `O=C(/C=C/NNC(=O)c1ccccc1)c1ccc(Br)cc1`, the inhibition was inactive: -1.9%. The same measure for `O=C(Nc1ccc(Cl)cc1Cl)C1=Cc2ccccc2OC1`: inactive: 1.8%. For `COC(=O)c1cccc(NC(=O)NC2CCCN2S(=O)(=O)c2ccc(Cl)cc2)c1` (stereo not given) the value was inactive: 4.3%. The same measure for `CN(C)c1ccc(CN2CCCCC2)cc1`: inactive: 1.8%; for `O=C(NCCN1CCN(C(=O)NC2CCCCC2)CC1)NC1CCCCC1`: inactive: 1.1%. Take `CCC(Sc1nc(C)cc(C)n1)C(=O)Nc1ccc(Cl)cn1` (stereo not given): the inhibition is inactive: 1.3%. For `O=C(CSc1nnc(-c2ccc(Cl)cc2)n1Cc1ccco1)NCc1ccc2c(c1)OCO2` the value was inactive: -0.6%; for `CCS(=O)(=O)N1CCCC(C(=O)NCc2ccccc2Cl)C1` (stereo not given), inactive: 2.6%; for `C=CCn1c(CSCc2ccc(C)cc2)nnc1SCC(=O)NCc1ccccc1`, inactive: -2.3%. `COc1ccc2c(c1)C(C1C(=O)CCCC1=O)c1ccccc1O2` (stereo not given): the inhibition is inactive: 3.3%. The same measure for `CCCS(=O)(=O)N1CCCC(C(=O)NCc2ccc3c(c2)OCO3)C1` (stereo not given): inactive: 1.1%; for `COC(=O)c1ccc(/C=N/NC(=O)CC(=O)NCC(C)C)cc1`: inactive: -2.9%; for `CCC(=O)N1CCN(C(=O)CC)C1c1ccccc1`: inactive: -1%. The same measure for `Cc1ccc2nc(NC(=S)NC(=O)c3cccs3)sc2c1`: inactive: -2.1%; for `NNc1ncnc2c1cnn2-c1ccccc1`: inactive: -1.9%; for `O=C(NCCCN1CCOCC1)c1coc2ccccc2c1=O`: inactive: -2.7%.

On to `Cc1nc2c(=O)oc3ccccc3c2n1-c1ccccc1`, for which the inhibition was inactive: -0.5%. For `CCCCCC(=O)N(O)C1CC(=O)N(c2ccccc2)C1=O` (stereo not given) the value was inactive: -2.2%. In the case of `COC(=O)C1CCN(Cc2cc(=O)oc3cc(OC)ccc23)CC1`, the inhibition was inactive: -0.8%. The same measure for `O=P(COCCOCP(=O)(c1ccccc1)c1ccccc1)(c1ccccc1)c1ccccc1`: inactive: -0.5%; for `O=C(Cc1ccccc1)NCc1ccc2c(c1)OCO2`: inactive: -2.6%; for `Cc1ccccc1NC(=O)N1C2CCC1CC(O)(c1cccnc1)C2` (stereo not given): inactive: -1.6%. Regarding `COCCNC(=O)Cn1cc(C(=O)c2cccs2)c2ccccc21`, the inhibition was inactive: -1.5%. Take `CCC(C)(C)NC(=O)C(c1ccc(C)o1)N(Cc1cccs1)C(=O)Cn1nnc2ccccc21` (stereo not given): the inhibition was inactive: -2%. In the case of `O=C(N/N=C/c1cccnc1)c1ccc([N+](=O)[O-])cc1`, the inhibition was inactive: -5.2%. For `CCc1nn(-c2ccccc2)c2c1-c1cc(OC)c(OC)cc1C1(N2)C(=O)Nc2ccccc21` (stereo not given) the value was inactive: -0.7%; for `COc1cc(NC(=S)NC(=O)c2cc(C)cc(C)c2)ccc1NC(=O)c1cccs1`, inactive: 0%; for `CN1C(=O)C(=C2CCCCCC2)SC1=S`, inactive: -1.7%. The same measure for `Cc1ccc(SCCNC(=O)c2ccc(C)c([N+](=O)[O-])c2)cc1`: inactive: -3.5%. For `O=C(c1c[nH]c(C(=O)C(Cl)(Cl)Cl)c1)c1ccccc1Cl` the value was inactive: 2.1%. Turning to `COC(=O)c1ccc(N2C(=O)CC(SCCN)C2=O)cc1` (stereo not given), the inhibition is inactive: -1.8%. For `CC1=NN(c2ccc(Br)cc2)C(=O)/C1=C/c1cccs1` the value was inactive: -2.7%; for `Cc1ccc(C)c(N=C2NC(=O)CS2)c1`, inactive: -0.7%; for `c1ccc2c(c1)ncn2CCOCCOCCn1cnc2ccccc21`, inactive: -2.5%. The same measure for `N#CC(c1ccc(Cl)cc1)c1ccc(Cl)nn1` (stereo not given): inactive: -0.4%; for `O=C(Cn1cnc2ccc(Cl)cc2c1=O)c1cccs1`: inactive: 2.4%; for `Cc1ccc(-c2nn(CC(=O)NCc3ccco3)c(=O)c3ccccc23)cc1`: inactive: -2%.
